According to the supplement of paper PMC12823440, “Inhibitors supercharge kinase turnover through native proteolytic circuits” (Nature, 2025):
The list shows a part of the results. Hit calls seldom repeat between salt and free forms of one compound.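 Kinases were expressed as nanoluciferase fusions in K562 cells and luminescence was read every 4 h between 2 and 18 h as percent of control, DMSO set to 100% and a positive control to 0%. A time point counts as decreased when the signal drops significantly (2 sigma). The hit call is the authors' own, does not follow from the count of time points alone, and its rule is not shown.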

molecular target: FGR (UniProt P09769); test: kinase-Nluc reporter destabilization hit call (1 = scored as downregulated) (binary); higher = compound decreases kinase abundance; conditions: K562; 2-18 h

Row | SMILES | kinase-Nluc reporter destabilization hit call
1 | Cc1ccccc1-n1c(Cn2cnc3c(N)ncnc32)nc2cccc(C)c2c1=O (10 µM) | inactive: 0
2 | C=C[C@H]1CN2CC[C@]3(C(=O)Nc4ccccc43)[C@@H]2C[C@@H]1/C(=C\OC)C(=O)OC [Corynoxeine] (2 µM) | inactive: 0
3 | O=C1C=CC[C@@H]2[C@H]3CCCN4CCC[C@@H](CN12)[C@@H]34 [Sophocarpine (monohydrate)] (2.5 µM) | inactive: 0
4 | O=c1ccc2cc(O[C@@H]3O[C@H](CO)[C@@H](O)[C@H](O)[C@H]3O)c(O)cc2o1 [Esculin] (10 µM) | inactive: 0
5 | O=c1[nH]c2ccccc2n1C1CCN(CCCC(c2ccc(F)cc2)c2ccc(F)cc2)CC1 [Pimozide] (2.5 µM) | inactive: 0
6 | C[C@@H]1CC[C@H]2[C@@H](C)C(=O)O[C@@H]3O[C@@]4(C)CC[C@@H]1[C@]32OO4 [Artemisinin] (10 µM) | inactive: 0
7 | COc1ccc2c(c1OC)C(OC)N(C)c1c-2ccc2cc3c(cc12)OCO3 (stereo not drawn) [Angoline] (10 µM) | inactive: 0
8 | C[C@H]1CC[C@]2(NC1)O[C@H]1C[C@H]3[C@@H]4CC[C@H]5C[C@@H](O[C@@H]6O[C@H](CO)[C@H](O[C@@H]7O[C@H](CO)[C@@H](O)[C@H](O[C@@H]8OC[C@@H](O)[C@H](O)[C@H]8O)[C@H]7O[C@@H]7O[C@H](CO)[C@@H](O)[C@H](O)[C@H]7O)[C@H](O)[C@H]6O)CC[C@]5(C)[C@H]4CC[C@]3(C)[C@H]1[C@@H]2C [Tomatine] (2.5 µM) | inactive: 0
